In article PMC12383261, “Mechanistic adaptation of the metazoan RabGEFs Mon1-Ccz1 and Fuzzy-Inturned” (Science Advances, 2025):
Results are given in words; binding and its absence hold for the method and conditions named. In cells and extracts the contact can be indirect. Binding can be weak; no strength is given.

Sequences of proteins named here, by UniProt entry; tags and fusion partners are left off. A change or cut given only in a name is not applied to a line headed by its entry.
UniProt A1XBS5: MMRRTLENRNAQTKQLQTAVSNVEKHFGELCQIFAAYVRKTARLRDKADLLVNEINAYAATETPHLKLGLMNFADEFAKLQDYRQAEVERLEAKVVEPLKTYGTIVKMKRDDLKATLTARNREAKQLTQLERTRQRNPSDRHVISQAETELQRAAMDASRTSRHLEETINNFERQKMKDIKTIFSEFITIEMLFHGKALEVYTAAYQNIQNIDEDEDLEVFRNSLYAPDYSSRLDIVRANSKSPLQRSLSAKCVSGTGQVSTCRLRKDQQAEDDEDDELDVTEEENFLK

Biological target: T1, HsRsg1 (human Rsg1) (human) (UniProt Q9BU20)
T1 sequence: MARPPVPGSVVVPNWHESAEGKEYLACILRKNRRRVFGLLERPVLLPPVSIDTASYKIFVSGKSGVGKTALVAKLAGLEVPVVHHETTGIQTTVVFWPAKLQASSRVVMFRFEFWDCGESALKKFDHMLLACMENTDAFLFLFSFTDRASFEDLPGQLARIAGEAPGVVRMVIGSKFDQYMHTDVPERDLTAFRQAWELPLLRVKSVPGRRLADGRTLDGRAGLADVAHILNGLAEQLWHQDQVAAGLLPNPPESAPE
Test: co-purification of co-expressed proteins; CiBAR1 (His6-SUMO) and Rsg1 (GST) coexpressed in E. coli; held on glutathione agarose by Rsg1, His-Sumo cleaved off CiBAR1, washed, eluted with PreScission; Coomassie-stained SDS-PAGE; both purified

binding: binds
Substance: HsCiBAR1 (human CiBAR1/FAM92A1) (from UniProt A1XBS5)
